Data published in publication PMC6937568.
Results are given in words; binding and its absence hold for the method and conditions named. Binding seen in cells or lysates may run through a third protein. Some results given as binding are weak or reduced against the parent protein; the word gives no strength.

Sequences of proteins named here, by UniProt entry; tags and fusion partners are left off.
UniProt P35570: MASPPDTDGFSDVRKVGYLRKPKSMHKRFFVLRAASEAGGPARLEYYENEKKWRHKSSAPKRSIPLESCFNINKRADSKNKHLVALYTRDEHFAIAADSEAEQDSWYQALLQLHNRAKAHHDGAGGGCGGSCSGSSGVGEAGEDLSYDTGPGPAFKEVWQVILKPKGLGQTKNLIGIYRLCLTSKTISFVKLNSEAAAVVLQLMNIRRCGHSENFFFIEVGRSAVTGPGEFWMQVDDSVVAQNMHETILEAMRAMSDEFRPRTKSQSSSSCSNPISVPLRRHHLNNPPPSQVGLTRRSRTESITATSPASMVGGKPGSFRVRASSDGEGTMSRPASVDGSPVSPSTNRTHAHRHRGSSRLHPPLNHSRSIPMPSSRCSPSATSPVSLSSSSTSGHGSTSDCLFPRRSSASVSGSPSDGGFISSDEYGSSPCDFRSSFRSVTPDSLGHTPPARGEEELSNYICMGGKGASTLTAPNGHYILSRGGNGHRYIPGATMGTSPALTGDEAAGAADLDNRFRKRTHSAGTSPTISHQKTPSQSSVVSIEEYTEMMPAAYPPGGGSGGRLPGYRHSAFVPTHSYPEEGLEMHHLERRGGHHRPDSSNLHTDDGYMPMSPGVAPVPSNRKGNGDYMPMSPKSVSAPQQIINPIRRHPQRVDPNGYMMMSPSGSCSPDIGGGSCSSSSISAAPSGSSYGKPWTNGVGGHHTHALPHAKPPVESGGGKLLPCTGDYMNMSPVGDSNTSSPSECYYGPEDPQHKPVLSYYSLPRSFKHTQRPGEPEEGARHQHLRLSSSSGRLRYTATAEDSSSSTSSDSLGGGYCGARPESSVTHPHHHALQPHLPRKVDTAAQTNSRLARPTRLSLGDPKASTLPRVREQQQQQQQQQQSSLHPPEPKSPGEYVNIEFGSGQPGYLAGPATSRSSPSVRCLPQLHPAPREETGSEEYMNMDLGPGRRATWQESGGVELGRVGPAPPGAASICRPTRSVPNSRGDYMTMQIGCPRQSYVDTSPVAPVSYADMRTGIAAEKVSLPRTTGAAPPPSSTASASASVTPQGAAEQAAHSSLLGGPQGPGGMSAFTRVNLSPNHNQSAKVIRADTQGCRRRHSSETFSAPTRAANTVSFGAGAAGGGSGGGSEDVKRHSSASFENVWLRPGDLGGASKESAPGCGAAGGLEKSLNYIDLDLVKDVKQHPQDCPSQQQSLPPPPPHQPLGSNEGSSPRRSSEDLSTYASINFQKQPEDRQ

Target: Insulin receptor substrate 1 (endogenous, rat primary neurons) (rat (endogenous in rat primary neurons)) (UniProt P35570)
Assay: proximity ligation; in situ PLA (DuoLink kit) in rat primary neurons with mouse anti-DYRK1A and rabbit anti-IRS-1 primary antibodies; negative controls with one antibody replaced by IgG; confocal Z-stacks

binding: binds
Substance: Dual-specificity tyrosine phosphorylation-regulated kinase 1A (endogenous, rat primary neurons) (from UniProt Q63470 1-763) (enzyme)
